# Measurements published in PubChem BioAssay (Tox21).
# Chains of the proteins cited; added tags and fusions are not shown.
# UniProt P14416, whole entry, looked up: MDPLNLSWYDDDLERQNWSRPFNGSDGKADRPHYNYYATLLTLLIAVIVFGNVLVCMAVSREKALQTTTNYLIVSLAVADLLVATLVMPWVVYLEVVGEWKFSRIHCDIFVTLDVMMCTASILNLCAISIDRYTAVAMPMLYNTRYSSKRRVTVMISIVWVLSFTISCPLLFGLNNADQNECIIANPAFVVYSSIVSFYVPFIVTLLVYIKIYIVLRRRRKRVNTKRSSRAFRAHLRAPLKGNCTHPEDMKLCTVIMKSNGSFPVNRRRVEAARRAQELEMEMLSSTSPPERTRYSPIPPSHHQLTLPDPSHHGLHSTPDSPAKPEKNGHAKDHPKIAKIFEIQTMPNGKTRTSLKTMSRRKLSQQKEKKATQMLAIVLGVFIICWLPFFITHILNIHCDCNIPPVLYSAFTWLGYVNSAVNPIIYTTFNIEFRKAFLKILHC
# UniProt P28223, whole entry, looked up: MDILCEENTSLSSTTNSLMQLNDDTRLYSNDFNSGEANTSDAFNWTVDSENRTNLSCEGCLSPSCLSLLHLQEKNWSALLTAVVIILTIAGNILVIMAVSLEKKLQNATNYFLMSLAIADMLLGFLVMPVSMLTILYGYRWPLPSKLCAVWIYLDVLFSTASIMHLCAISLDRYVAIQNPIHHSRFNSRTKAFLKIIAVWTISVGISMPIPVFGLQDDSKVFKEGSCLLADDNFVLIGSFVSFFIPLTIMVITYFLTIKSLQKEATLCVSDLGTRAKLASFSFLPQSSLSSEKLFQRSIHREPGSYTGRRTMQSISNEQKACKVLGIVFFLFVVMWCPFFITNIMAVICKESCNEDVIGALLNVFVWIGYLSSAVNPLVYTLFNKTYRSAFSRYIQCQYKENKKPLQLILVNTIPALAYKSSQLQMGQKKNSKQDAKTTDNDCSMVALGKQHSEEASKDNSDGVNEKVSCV
# Inconclusive results, whose numbers are uncertain, are shown with a selection of clear calls. For some assays here: Potencies beside an inconclusive call are fits to weak or partial responses and may not hold up. Active and inactive are the calls of the source. Unless noted, the call rests on the fitted dose curve.
# How the values were obtained:
# [1] = Nuclear factor erythroid 2-related factor 2/antioxidant responsive element (Nrf2/ARE) small molecule agonists: luciferase reporter gene qHTS assay in human keratinocytes (AID 1919969); conditions: KeratinoSens HaCaT ARE-luciferase, luminescence, 24 h; activity, positive = activation: at 92.4 µM (top of the series); further: nearly all actives have a fitted effect of over 35% in size; further: potency means the concentration at half of the fitted maximal effect; on activity, positive = activation: on the % scale 0 is the no-effect control and ±100 the full control effect
# [2] = p53 small molecule agonists, cell-based qHTS assay with human liver microsomes: qHTS cell viability counter screen (AID 1963579); further: nearly all actives have a fitted effect of over 45% in size; further: potency means the concentration at half of the fitted maximal effect
# Procedure, shortened: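 HLM-supplemented (0.5 mg/mL final) and NADPH-supplemented (0.5 mg/mL final) p53RE-bla cultures, 4,000 cells per well, were dosed with compounds in DMSO for 16 h at 37 C; luminescent ATP detection (CellTiter-Glo, 30 min, room temperature) quantified surviving cells.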
# [3] = biological target: Beta-2 adrenergic receptor (Homo sapiens) (UniProt P07550); assay: Adrenergic beta2 receptor (ADRB2) small molecule agonists, cell-based qHTS assay (AID 1963593); conditions: CHO-ADRB2 cells, cAMP HTRF, 30 min;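 further: CHO cells stably overexpressing human ADRB2; on the % scale 0 is the no-effect control and ±100 the full control effect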
# Procedure, shortened: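 CHO cells stably over-expressing ADRB2 were plated overnight at 37C, then dosed with compounds plus a stimulation mix containing 100uM IBMX and 25uM Ro-20-1724 for 0.5hr at room temperature. cAMP was measured by HTRF competition, 1hr.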
# [4] = biological target: D(2) dopamine receptor (Homo sapiens) (UniProt P14416); assay: Dopamine D2 receptor (DRD2) small molecule agonists, cell-based qHTS assay (AID 1963594); conditions: HEK293-DRD2 cAMP HTRF, agonist mode, 30 min; activation: at 92.4 µM (top of the series) unless noted; further: nearly all actives have a fitted effect of over 35% in size; further: potency means the concentration at half of the fitted maximal effect; on activation: on the % scale 0 is the no-effect control and ±100 the full control effect
# Procedure, shortened: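 cAMP accumulation in DRD2-HEK293 cells measured by HTRF after 1 h detection; compounds added 10 min before NKH477 (200nM […]) forskolin-analogue stimulation, 30 min at room temperature, with Ro20-1724 present at 0.1 mM final.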
# [5] = p53 small molecule agonists, cell-based qHTS assay with rat liver microsomes: qHTS cell viability counter screen (AID 1963580); further: nearly all actives have a fitted effect of over 45% in size; further: potency means the concentration at half of the fitted maximal effect
# Procedure, shortened: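 Cytotoxicity counter screen: intracellular ATP read by CellTiter-Glo luminescence in the p53 reporter wells. HCT-116 p53RE-bla cells were treated for 16 h at 37 C alongside rat liver microsomes and NADPH, each 0.5 mg/mL final.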
# [6] = cAMP Responsive Elements (CRE) small molecule agonists, cell-based qHTS assay (AID 1963590); conditions: CRE-bla HEK293T, beta-lactamase FRET ratio, 3 h; activation: at 92.4 µM (top of the series) unless noted; further: potency means the concentration at half of the fitted maximal effect
# Procedure, shortened: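 Quantitative HTS for CRE agonists: HEK 293T CRE-bla cells, overnight plating, 3 h compound incubation at 37 C/5% CO2, then 2 h room-temperature LiveBLAzer B/G FRET substrate loading.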
# [7] = cAMP Responsive Elements (CRE) small molecule antagonists, cell-based qHTS assay (AID 1963591; active means well fitted inhibition curve with a large enough effect in the signal ratio in the repeat runs, not every such curve was filed as active; inconclusive means weak or mixed curves, or effect the other way; the % refers to the signal ratio; further: potency means the concentration at half of the fitted maximal effect; on activity change, negative = inhibition: on the % scale 0 is the no-effect control and ±100 the full control effect); conditions: CRE-bla HEK293T, beta-lactamase FRET ratio; activity change, negative = inhibition: at 92.4 µM (top of the series) unless noted
# Procedure, shortened: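 Fluorescence intensity from cleaved LiveBLAzer B/G substrate (2 h, room temperature) quantified CRE-bla activity in HEK 293T cells exposed 3 h to compound with 0.25 uM final NKH477.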
# [8] = biological target: 5-hydroxytryptamine receptor 2A (Homo sapiens) (UniProt P28223); assay: 5-hydroxytryptamine receptor 2A (HTR2A) small molecule antagonists, cell-based qHTS assay (AID 1963586); further: on the % scale 0 is the no-effect control and ±100 the full control effect; nearly all actives have a fitted effect of over 45% in size
# Procedure, shortened: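 CHO cells stably expressing human HTR2A were plated for 18 h at 37 C, then loaded with calcium dye for 1 h. Compounds were preincubated 5 min at room temperature before DOI (4 nM solution) was added. Kinetic fluorescence was read for 3 min.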
# [9] = p53 small molecule agonists, cell-based qHTS assay: qHTS cell viability counter screen (AID 1963581); further: potency means the concentration at half of the fitted maximal effect; nearly all actives have a fitted effect of over 45% in size
# Procedure, shortened: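 Multiplexed with the reporter read, a CellTiter-Glo step (30 min, room temperature) gauges ATP-based viability of HCT-116 p53RE-bla cells after 16 h compound incubation at 37 C.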
# [10] = activation: at 92.4 µM (top of the series) unless noted
compound,measurement,setting,value
CC(=O)CCC(=O)O,Potency,[1],"inconclusive: 1.27 µM [activator, single point]"
same,Potency,[2],"inconclusive: 0.141 µM [rising, partial curve, poor fit]"
same,activation,[3]; at 42.5 µM (top of the series),inconclusive: -29.2%
same,activation,[3]; at 92.4 µM (top of the series),inconclusive: -0.568%
same,Potency,[4],"inconclusive: 7.17 µM [falling, single point]"
O=C(O)P(=O)(O)O,Potency,[1],inactive
same,Potency,[5],"inconclusive: 0.793 µM [cytotoxic, single point]"
O=C1c2cccc(O)c2C(=O)c2c(O)cccc21,Potency,[1],inconclusive: 23.7 µM [activator]
same,Potency,[5],inactive
same,Potency,[6],"inconclusive: 8.72 µM [rising, full curve]"
same,Potency,[7],"inconclusive: 8.72 µM [activator, full curve, poor fit]"
same,"activity change, negative = inhibition",[7],inconclusive: 4.3% [at 42.4 µM]
Nc1nc(Cl)cc(Cl)n1,Potency,[1],"inconclusive: 1.54 µM [activator, single point]"
same,Potency,[5],inactive
same,Potency,[8],inactive
same,Potency,[7],"inconclusive: 21.7 µM [fluorescent, partial curve, poor fit]"
same,activation,[3]; [10],inconclusive: -54.4%
C=C(C)C(=O)OCCCCCCCCCCCCC,Potency,[1],inactive
same,Potency,[2],inactive
same,activation,[3]; [10],inconclusive: 6.89%
same,Potency,[4],inactive
CC(=O)[C@@]1(O)CC[C@H]2[C@@H]3CCC4=CC(=O)CC[C@]4(C)[C@H]3CC[C@@]21C,Potency,[1],"inconclusive: 0.243 µM [activator, single point]"
same,Potency,[5],"inconclusive: 0.793 µM [cytotoxic, single point]"
same,Potency,[9],"inconclusive: 0.182 µM [cytotoxic, single point]"
same,Potency,[6],"inconclusive: 21.7 µM [rising, full curve]"
same,Potency,[7],"inconclusive: 13.7 µM [activator, partial curve]"
same,"activity change, negative = inhibition",[7],inconclusive: 6.33% [at 42.4 µM]
same,activation,[3]; [10],inconclusive: 1.33% [at 42.5 µM]
same,activation,[3]; at 92.4 µM (top of the series),inactive: -27.9%

# As a short view, part of the list above.
compound,measurement,setting,value
C=C(C)C(=O)OCCCCCCCCCCCCC,Potency,[2],inactive
same,activation,[3]; [10],inconclusive: 6.89%
